Experimental findings from publication doi:10.1101/2021.08.18.456771 are described below.

By UniProt entry, the sequences of proteins in these tests, tags left out.
UniProt Q01196: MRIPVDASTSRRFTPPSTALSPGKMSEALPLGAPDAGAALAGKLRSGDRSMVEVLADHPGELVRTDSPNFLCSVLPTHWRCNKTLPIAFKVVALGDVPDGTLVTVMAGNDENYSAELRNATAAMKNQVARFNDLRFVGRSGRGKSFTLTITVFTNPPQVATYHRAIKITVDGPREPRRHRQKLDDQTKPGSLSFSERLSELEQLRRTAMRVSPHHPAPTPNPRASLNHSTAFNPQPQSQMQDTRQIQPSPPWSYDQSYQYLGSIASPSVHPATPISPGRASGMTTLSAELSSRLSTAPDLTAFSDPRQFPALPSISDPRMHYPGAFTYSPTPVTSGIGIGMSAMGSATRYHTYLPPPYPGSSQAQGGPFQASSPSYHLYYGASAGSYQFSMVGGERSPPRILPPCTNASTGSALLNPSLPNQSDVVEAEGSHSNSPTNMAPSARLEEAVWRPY
UniProt P28347: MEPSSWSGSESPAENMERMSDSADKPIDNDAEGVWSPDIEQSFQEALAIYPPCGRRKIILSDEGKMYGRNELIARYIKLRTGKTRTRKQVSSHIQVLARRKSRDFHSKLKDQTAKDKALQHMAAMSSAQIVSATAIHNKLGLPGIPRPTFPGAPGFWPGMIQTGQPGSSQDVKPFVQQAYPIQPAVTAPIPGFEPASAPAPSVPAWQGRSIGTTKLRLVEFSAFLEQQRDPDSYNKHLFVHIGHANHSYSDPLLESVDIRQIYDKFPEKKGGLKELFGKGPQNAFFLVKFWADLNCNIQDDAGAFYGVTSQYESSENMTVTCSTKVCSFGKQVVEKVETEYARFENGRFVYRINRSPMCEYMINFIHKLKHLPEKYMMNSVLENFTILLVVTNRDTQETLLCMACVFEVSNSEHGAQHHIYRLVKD

In one assay the target is Myc-RUNX1 (UniProt Q01196). Description: co-IP.
The next assay has as its target Myc-TEAD1 (UniProt P28347). Put plainly: co-IP.

No constants are given. Whether binding was seen depends on the method and setting. In cells and extracts the contact can be indirect. Some binding calls cover weakened binding; strength is not graded here. Tags and fused reporters may be left off the sequences shown.

B1: FLAG-VGLL3 (protein, UniProt A8MV65-1 1-326)
chain: MSCAEVMYHPQPYGASQYLPNPMAATTCPTAYYQPAPQPGQQKKLAVFSKMQDSLEVTLPSKQEEEDEEEEEEEKDQPAEMEYLNSRCVLFTYFQGDIGSVVDEHFSRALGQAITLHPESAISKSKMGLTPLWRDSSALSSQRNSFPTSFWTSSYQPPPAPCLGGVHPDFQVTGPPGTFSAADPSPWPGHNLHQTGPAPPPAVSESWPYPLTSQVSPSYSHMHDVYMRHHHPHAHMHHRHRHHHHHHHPPAGSALDPSYGPLLMPSVHAARIPAPQCDITKTEPTTVTSATSAWAGAFHGTVDIVPSVGFDTGLQHQDKSKESPWY
Consider B1, for which the binding result in the assay with Myc-RUNX1 and with Myc-TEAD1 was “binds” in each case.
